# US20250331521A1, “NITROGEN-CONTAINING HETEROCYCLIC COMPOUND HAVING AN OXIME GROUP, AGRICULTURAL OR HORTICULTURAL HERBICIDE COMPRISING THE COMPOUND, AND METHOD FOR USING THE COMPOUND OR THE HERBICIDE” (NIHON NOHYAKU CO., LTD., priority 2022, published 2025)
# Some of these results come from one statement about several compounds together. Some compounds share one range, which may span the group rather than tell each member.
# System: Barnyard grass (Echinochloa crus-galli)
# Experiment: Test Example 1: post-emergence herbicidal effect against paddy weeds
# Format: in vivo
# Conditions: active ingredient concentration 10 ppm; drop treatment in hydroponic medium; 30° C., full light; six days after treatment; compared to non-treatment group
row,SMILES,"herbicidal effect against barnyard grass (score, degree of growth inhibition)"
1,CCO/N=C(\N)c1ccc(S(=O)(=O)NC)c(-n2nc(-c3ccccc3C)cc2C)n1 [4-15],3 (Score 3 70% to 89% herbicidal effect)
2,CCO/N=C(\N)c1ccc(S(=O)(=O)NC)c(-n2nc(-c3cccc(Cl)c3)cc2C)n1 [4-16],3 (Score 3 70% to 89% herbicidal effect)
3,CCO/N=C(\N)c1ccc(S(=O)(=O)N(C)C)c(-n2nc(-c3ccccc3Cl)cc2C)n1 [4-17],3 (Score 3 70% to 89% herbicidal effect)
4,CCO/N=C(\N)c1ccc(S(C)(=O)=O)c(-n2nc(-c3ccccc3)cc2OC)n1 [4-19],3 (Score 3 70% to 89% herbicidal effect)
5,CCO/N=C(\N)c1ccc(S(=O)(=O)NC)c(-n2nc(-c3ccc(Cl)cc3)cc2[S+](C)[O-])n1 (stereo not shown) [4-24],3 (Score 3 70% to 89% herbicidal effect)
6,CCO/N=C(\N)c1ccc(S(=O)(=O)NC)c(-n2nc(-c3ccccc3SC)cc2C)n1 [4-52],3 (Score 3 70% to 89% herbicidal effect)
7,CCO/N=C(\N)c1ccc(S(=O)(=O)NC)c(-n2nc(-c3ccccn3)cc2C)n1 [4-77],3 (Score 3 70% to 89% herbicidal effect)
8,CNS(=O)(=O)c1ccc(/C(N)=N/OC)nc1-n1nc(-c2ncccc2Cl)cc1C [4-78],3 (Score 3 70% to 89% herbicidal effect)
9,CNS(=O)(=O)c1ccc(/C(N)=N/OC(C)C)nc1-n1nc(N2CCCCC2)cc1C [4-115],3 (Score 3 70% to 89% herbicidal effect)
10,CNS(=O)(=O)c1ccc(/C(N)=N/OC)nc1-n1nc(-c2cccs2)cc1C [4-131],3 (Score 3 70% to 89% herbicidal effect)
11,CCO/N=C(\N)c1ccc(S(=O)(=O)NC)c(-n2nc(-c3cccs3)cc2C)n1 [4-132],3 (Score 3 70% to 89% herbicidal effect)
12,CNS(=O)(=O)c1ccc(/C(N)=N/OC)nc1-n1nc(-c2ccsc2)cc1C [4-134],3 (Score 3 70% to 89% herbicidal effect)
13,CCO/N=C(\N)c1ccc(S(=O)(=O)NC)c(-n2nc(-c3ccsc3)cc2C)n1 [4-135],3 (Score 3 70% to 89% herbicidal effect)
14,CCO/N=C(\N)c1ccc(S(=O)(=O)NC)c(-n2nc(C(C)=O)cc2C)n1 [4-149],3 (Score 3 70% to 89% herbicidal effect)
15,CNS(=O)(=O)c1ccc(/C(N)=N/OC(C)C)nc1-n1nc(I)cc1C [4-151],3 (Score 3 70% to 89% herbicidal effect)
16,CNS(=O)(=O)c1ccc(/C(N)=N/OC)nc1-n1nc(I)cc1C [4-152],3 (Score 3 70% to 89% herbicidal effect)
17,CCO/N=C(\N)c1ccc(S(=O)(=O)NC)c(-n2nc(-c3ccc(Cl)cc3F)cc2C)n1 [4-157],3 (Score 3 70% to 89% herbicidal effect)
18,CCO/N=C(\N)c1ccc(S(=O)(=O)NC)c(-n2nc(-c3cccnc3F)cc2C)n1 [4-158],3 (Score 3 70% to 89% herbicidal effect)
19,CCO/N=C(\N)c1ccc(S(=O)(=O)NC)c(-n2nc(-c3cccc(C#N)c3)cc2C)n1 [4-159],3 (Score 3 70% to 89% herbicidal effect)
20,CCO/N=C(\N)c1ccc(S(=O)(=O)NC)c(-n2nc(-c3ccc(Cl)nc3)cc2C)n1 [4-160],3 (Score 3 70% to 89% herbicidal effect)

row,SMILES,"herbicidal effect against barnyard grass (score, degree of growth inhibition)"
1,CCO/N=C(\N)c1ccc(S(=O)(=O)NC)c(-n2nc(-c3cnc4ccccc4c3)cc2C)n1 [4-161],3 (Score 3 70% to 89% herbicidal effect)
2,CCO/N=C(\N)c1ccc(S(=O)(=O)NC)c(-n2nc(-c3cc4ccccc4s3)cc2C)n1 [4-162],3 (Score 3 70% to 89% herbicidal effect)
3,CCO/N=C(\N)c1ccc(S(=O)(=O)NC)c(-n2nc(C)c(C)c2C(=O)OCC)n1 [4-165],3 (Score 3 70% to 89% herbicidal effect)
4,CCO/N=C(\N)c1ccc(S(=O)(=O)NC)c(-n2nc(N3CCCC3=O)cc2C)n1 [4-168],3 (Score 3 70% to 89% herbicidal effect)
5,CCO/N=C(\N)c1ccc(S(=O)(=O)NC)c(-n2nc(N3CCCC3=O)c(Cl)c2C)n1 [4-169],3 (Score 3 70% to 89% herbicidal effect)
6,CCO/N=C(\N)c1ccc(S(=O)(=O)NC)c(-n2nc(C)c(I)c2C)n1 [4-171],3 (Score 3 70% to 89% herbicidal effect)
7,CCO/N=C(\N)c1ccc(S(=O)(=O)NC)c(-n2nc(C3(C)OCCO3)cc2C)n1 [4-180],3 (Score 3 70% to 89% herbicidal effect)
8,CCO/N=C(\N)c1ccc(S(=O)(=O)NC)c(-n2nc(C3(C)OCCCO3)cc2C)n1 [4-181],3 (Score 3 70% to 89% herbicidal effect)
9,CCO/N=C(\N)c1ccc(S(=O)(=O)NC)c(-n2nc(-c3sccc3C)cc2C)n1 [4-182],3 (Score 3 70% to 89% herbicidal effect)
10,CCO/N=C(\N)c1ccc(S(=O)(=O)NC)c(-n2nc(-c3ccnn3C)cc2C)n1 [4-183],3 (Score 3 70% to 89% herbicidal effect)
11,CCO/N=C(\N)c1ccc(S(=O)(=O)NC)c(-n2nc(-c3ccccc3OC)cc2C)n1 [4-185],3 (Score 3 70% to 89% herbicidal effect)
12,CCO/N=C(\N)c1ccc(S(=O)(=O)NC)c(-n2nc(-c3cccc(OC)c3)cc2C)n1 [4-187],3 (Score 3 70% to 89% herbicidal effect)
13,CCO/N=C(\N)c1ccc(S(=O)(=O)NC)c(-n2nc(-c3ccc(F)cc3F)cc2C)n1 [4-188],3 (Score 3 70% to 89% herbicidal effect)
14,CCO/N=C(\N)c1ccc(S(=O)(=O)NC)c(-n2nc(C)c(Br)c2C)n1 [4-189],3 (Score 3 70% to 89% herbicidal effect)
15,C=Cc1cc(C)n(-c2nc(/C(N)=N/OCC)ccc2S(=O)(=O)NC)n1 [4-237],3 (Score 3 70% to 89% herbicidal effect)
16,CCO/N=C(\N)c1ccc(S(=O)(=O)NC)c(-n2nc(CC)cc2C)n1 [4-238],3 (Score 3 70% to 89% herbicidal effect)
17,CCO/N=C(\N)c1ccc(S(=O)(=O)NC)c(-n2nc(-n3ccccc3=O)cc2C)n1 [4-239],3 (Score 3 70% to 89% herbicidal effect)
18,CCO/N=C(\N)c1ccc(S(=O)(=O)NC)c(-c2nn(-c3ccccc3Cl)c(=O)n2C)n1 [5-21],3 (Score 3 70% to 89% herbicidal effect)
19,CCO/N=C(\N)c1ccc(S(C)(=O)=O)c(-c2nc(-c3ccccc3)sc2C)n1 [7-20],3 (Score 3 70% to 89% herbicidal effect)
20,CCO/N=C(\N)c1ccc(S(=O)(=O)NC)c(-c2nc(-c3ccccc3)sc2C)n1 [7-21],3 (Score 3 70% to 89% herbicidal effect)
